Measured values from PubChem BioAssay AID540276 (National Center for Advancing Translational Sciences (NCATS), 2011).
Out of some 300,000 compounds screened, about 5,400 (1.8%) were called active. Inconclusive means that the source gave no clear call. Such entries were picked first, then a sample of the others. Calls follow the shape of the full dose curve; tested in HEK293 cells. Potencies beside an inconclusive call are fits to weak or partial responses and may not hold up.
% is scaled to controls: 0 for no effect and ±100 for the full control effect; potency is read from the fitted curve at half-maximal effect.

Assay: qHTS for inhibitors of binding or entry into cells for Marburg Virus
Conditions: Marburg virus pseudotyped entry inhibition, cell reporter; activity change, negative = inhibition: at 37.8 µM (top of the series) unless noted
In the case of `Cc1ccccc1OCC(=O)Nc1cnn(CCCC(=O)O)c1`, the Potency is reported as “inactive”. In the case of `COc1ccc2oc(=O)c(C(=O)Nc3ccccc3-c3ccccc3)cc2c1`, the Potency is reported as inconclusive: 2.31 µM [activator, partial curve, poor fit]. For `CCOC(=O)CSc1nnc(-c2ccccc2NC(=O)c2ccccc2)o1`, the Potency was “inactive”. With `CCN(CC(=O)Nc1ccc(NC(C)=O)cc1)C(=O)c1cccc(-n2cccc2)c1` the Potency was “inactive”. With `O=C(CSc1nnc(-c2cccnc2)o1)Nc1ccccc1F` the Potency was inconclusive: 31.6 µM [inhibitor, single point]. In the case of `CCCCN(C(=O)c1ccc(NC(=O)C(C)C)cc1)c1ccccc1`, the Potency is reported as inconclusive: 15.8 µM [inhibitor, single point]. In the case of `O=C(NCCCc1ccccc1)c1nn(-c2ccccc2F)nc1CO`, the Potency is reported as “inactive”. In the case of `N#CC1=C(N)SC2(CCCCC2)SC1c1ccccc1` (stereo not drawn), the Potency is reported as inconclusive: 0.282 µM [activator, single point]. With `COc1cc([N+](=O)[O-])cc(/C=N/NC(=O)C(C)Nc2cccc3ccccc23)c1O` (stereo not drawn) the Potency was “inactive”. For `O=C(/C=C/c1ccc(Br)cc1)c1ccc(NC(=O)c2ccco2)cc1`, the Potency was inconclusive: 1.41 µM [inhibitor, partial curve, poor fit]. In the case of `O=C(Nc1cccc(C2OCCCO2)c1)c1cccs1`, the Potency is reported as inconclusive: 1.26 µM [activator, single point]. For `O=C(CN1CCN(c2ccccn2)CC1)Nc1ccc([N+](=O)[O-])cc1C(=O)Nc1ccccc1F`, the Potency was inconclusive: 7.08 µM [inhibitor, full curve, poor fit]. For `CSc1ccccc1OCc1cc(C(=O)NC(C)c2cnn(C)c2)no1` (stereo not drawn), the Potency was “inactive”. In the case of `c1ccc(N/N=C(\Cc2nc3ccccc3[nH]2)c2ccccc2)cc1`, the Potency is reported as inconclusive: 5.8 µM [activator, single point]. For `CCN(CC)CCNC(=O)c1cc(S(C)(=O)=O)ccc1OC`, the Potency was inconclusive: 0.0355 µM [inhibitor, full curve]. With `COc1ccc(S(=O)(=O)N2CCN(C3CCN(Cc4ccccc4)CC3)CC2)cc1` the Potency was inconclusive: 35.5 µM [inhibitor, single point]. In the case of `COc1ccc(/C=C(\C#N)C(=O)OCC(=O)Nc2ccc(-c3nc4ccc(C)cc4s3)cc2)cc1`, the Potency is reported as inconclusive: 3.55 µM [inhibitor, partial curve, poor fit]. For `CN(C(=O)CCNC(=O)Cn1ccc2ccccc2c1=O)c1ccc(Br)cc1`, the Potency was “inactive”. In the case of `CCN(CC)S(=O)(=O)c1ccc(Cl)c(C(=O)Nc2cc(C)nn2-c2ccccc2)c1`, the Potency is reported as inconclusive: 2.82 µM [inhibitor, single point]. In the case of `CC1CC(C)CN(CCCNC(=O)c2csc3c2CCCC3)C1` (stereo not drawn), the Potency is reported as inconclusive: 18.3 µM [inhibitor, single point]. In the case of `CCn1cc(CNCc2ccc(OCC(O)CN(C)Cc3ccccc3)cc2)cn1` (stereo not drawn), the Potency is reported as inconclusive: 3.98 µM [inhibitor, full curve, poor fit]. In the case of `COc1ccc(C2c3ccc4ccccc4c3Oc3ncn(CCCN(C)C)c(=N)c32)cc1` (stereo not drawn), the Potency is reported as active: 1.78 µM. For `CC1(C)CN2C(=S)N(c3ccccc3)C(c3ccccc3)N2C1` (stereo not drawn), the Potency was inconclusive: 25.1 µM [inhibitor, partial curve, poor fit]. In the case of `CC(C)Nc1ccc(-n2nc3ccccc3[n+]2[O-])cc1`, the Potency is reported as inconclusive: 1.12 µM [inhibitor, full curve, poor fit]. In the case of `Cc1cccc(Cn2c(SCc3ccc(C(=O)N4CCCCCC4)cc3)nc3ccncc32)c1`, the Potency is reported as “inactive”. In the case of `COC(=O)C(C(=O)OC)C(C(C)C)C(C(=O)OC)C(=O)OC`, the Potency is reported as “inactive”. In the case of `COC(CNC(=O)c1ccc(Cn2c(=S)[nH]c3cc4c(cc3c2=O)OCO4)cc1)OC`, the Potency is reported as inconclusive: 25.1 µM [activator, single point]. With `COC(=O)N/N=C(\C)c1ccco1` the Potency was “inactive”. With `CC(C)(C)c1ccc(-c2cc(-c3ccccc3O)[nH]n2)cc1` the Potency was inconclusive: 12.6 µM [inhibitor, single point]. For `COc1ccccc1C(=O)N(Cc1ccccc1)c1ccc(C)cc1`, the Potency was inconclusive: 15.8 µM [inhibitor, single point]. In the case of `CCOC(=O)C1CCN(C(=O)c2oc3ccc(S(=O)(=O)N4CCCCCC4)cc3c2C)CC1`, the Potency is reported as inconclusive: 29.1 µM [inhibitor, single point]. With `Cc1onc(-c2ccccc2Cl)c1C(=O)OCC(=O)c1c(N)n(C)c(=O)n(C)c1=O` the Potency was inconclusive: 20 µM [inhibitor, single point]. With `Clc1ccc(CO/N=C2\CCCc3nonc32)cc1` the Potency was inconclusive: 1.41 µM [inhibitor, single point]. For `Cn1nccc1C(=O)N1CCc2c([nH]c3ccccc23)C1c1ccc(F)cc1` (stereo not drawn), the Potency was inconclusive: 35.5 µM [inhibitor, single point]. For `Cc1ccc(C)c(N(C)C(=O)c2cn(C)c(=O)c3ccccc23)c1`, the Potency was inconclusive: 6.31 µM [inhibitor, single point]. With `COC1=CC(=O)C[C@@H](C)[C@@]12Oc1c(Cl)c(OC)cc(OC)c1C2=O` the Potency was inconclusive: 8.2 µM [inhibitor, partial curve]. In the case of `Cc1cc(C)cc(C(=O)N2CC(C)SC2=Nc2cccc(S(=O)(=O)N(C)C)c2)c1` (stereo not drawn), the Potency is reported as inconclusive: 31.6 µM [inhibitor, partial curve, poor fit]. In the case of `COC(=O)CSc1nnc(-c2cnccn2)n1C`, the Potency is reported as inconclusive: 0.184 µM [inhibitor, single point]. In the case of `CCOC(=O)c1c(Oc2ccc(C(=O)OC)cc2)nnc(-c2ccccc2)c1-c1ccccc1`, the Potency is reported as inconclusive: 35.5 µM [inhibitor, single point]. In the case of `C[N+](C)(C)CCC(=O)N1C/C(=C/c2ccccc2)C(=O)/C(=C\c2ccccc2)C1`, the Potency is reported as inconclusive: 5.62 µM [inhibitor, full curve, poor fit]. In the case of `COc1ccc(NC(=O)CSc2nnc(Cc3cccs3)n2C)cc1`, the Potency is reported as “inactive”. In the case of `COC(=O)c1cc(NC(=O)c2ccc(OC)cc2)c(=O)oc1C`, the Potency is reported as “inactive”. With `O=S(=O)(NCc1ccco1)c1cnc(Cl)c(Br)c1` the Potency was inconclusive: 20.6 µM [inhibitor, single point]. In the case of `Cc1cccc2cc(CN(Cc3nnnn3Cc3ccccc3)C3CCCC3)c(=O)[nH]c12`, the Potency is reported as active: 16.4 µM. In the case of `CC(=O)Nc1ccc(C(=O)COC(=O)C2CC2C)c(F)c1` (stereo not drawn), the Potency is reported as inconclusive: 17.8 µM [activator, partial curve, poor fit]. With `OC(CN1C2=NCCCN2c2ccccc21)c1ccc(Br)cc1` (stereo not drawn) the Potency was inconclusive: 35.5 µM [inhibitor, single point]. For `COc1cc(OC)c(NC(c2nnc(-c3ccccc3)o2)c2ccc(F)cc2Cl)cc1Cl` (stereo not drawn), the Potency was inconclusive: 35.5 µM [inhibitor, single point]. For `CCc1ccccc1OCCCCN1CCCC1`, the Potency was inconclusive: 35.5 µM [inhibitor, single point]. For `COc1ccccc1Nc1nc(-c2cccnc2)cs1`, the Potency was “inactive”. In the case of `CCCCCc1ccc(OCCCC[n+]2ccc(C)cc2)c(CCCCC)c1`, the Potency is reported as inconclusive: 25.1 µM [inhibitor, single point]. With `COc1ccccc1Nc1c2c(nc3ccc(NC(=O)/C=C/c4cccc(OC)c4OC)cc13)CCCC2` the Potency was inconclusive: 1.12 µM [inhibitor, partial curve, poor fit]. With `Cc1ccc(Nc2c3c(nc4nncn24)CCC3)cc1` the Potency was “inactive”. In the case of `CCN(Cc1ccccc1)C(c1ccc(C)cc1)c1nnnn1C(C)(C)C` (stereo not drawn), the Potency is reported as “inactive”. In the case of `CCN(CC)C(=O)c1ccc(COc2ccccc2Br)o1`, the Potency is reported as “inactive”. With `CCOc1ccccc1-c1nc(-c2ccc(-c3ccccc3)nc2OCC)no1` the activity change, negative = inhibition was inconclusive: 10.8% [activator] [at 46.1 µM]. For `COc1ccccc1NC(=O)CSc1nnc(-c2cccc(Cl)c2)o1`, the Potency was inconclusive: 7.08 µM [activator, partial curve, poor fit]. With `CC(/C=N/N1CCN(c2ccccc2)CC1)=C\c1ccco1` the Potency was inconclusive: 0.92 µM [activator, partial curve]. With `COc1ccc(CCNC(=O)c2ccc3c(c2)N(Cc2cccc(C)c2)C(=O)c2ccccc2S3(=O)=O)cc1OC` the Potency was inconclusive: 35.5 µM [inhibitor, single point]. For `CCOC(=O)C1(C(=O)OCC)C(c2ccccc2)CC(O)N1C(C)=O` (stereo not drawn), the Potency was inconclusive: 8.91 µM [inhibitor, single point]. In the case of `Cc1oc(-c2ccc3c(c2)OCCO3)cc1C(=O)NCC(=O)O`, the Potency is reported as inconclusive: 25.1 µM [inhibitor, partial curve, poor fit]. For `COc1cccc(C(=O)NCC(=O)OCC(=O)c2ccccc2)c1`, the Potency was inconclusive: 35.5 µM [activator, single point]. In the case of `CC(=O)C1CCC2C3CCC4CC(=O)CCC4(C)C3C=CC12C` (stereo not drawn), the Potency is reported as “inactive”. With `O=C(CNCCO)N1N=C(c2cccs2)CC1c1cccs1` (stereo not drawn) the Potency was “inactive”. With `CCn1cnc2c(oc3ccccc32)c1=O` the Potency was “inactive”. For `O=C(CCSCCC(=O)NCCN1CCOCC1)NCCN1CCOCC1`, the Potency was inconclusive: 11.2 µM [activator, single point]. With `O=C(c1ccc(Cl)c(S(=O)(=O)NCc2ccccc2)c1)N1CCN(c2ccccn2)CC1` the Potency was inconclusive: 16.4 µM [inhibitor, single point]. For `CC(=O)NC(CC(=O)Nc1cccc(S(=O)(=O)N2CCOCC2)c1)c1ccccc1` (stereo not drawn), the Potency was inconclusive: 6.31 µM [inhibitor, single point]. For `CCOC(=O)c1c(C)[nH]c(C(=O)OCC(=O)Nc2cc(Cl)ccc2OC)c1C`, the Potency was inconclusive: 8.2 µM [inhibitor, partial curve, poor fit].
